According to patent US5434248 (dated 1995):

Test: general procedure: solution-phase peptide synthesis; EDC/HOBT
Conditions: late stage modification step

Row | Substance | step yield [%]
1 | N-(N-AcetylTyrosinyl-Valinyl-Alaninyl)-3-amino-4-oxo-8-phenyl octanoic acid | 80
2 | N-(N-AcetylTyrosinyl-Valinyl-Alaninyl)-3-amino-4-oxo-9-phenyl nonanoic acid | 80
